# Assay results from paper doi:10.1101/2022.02.20.481212.
# Sequences of proteins named here, by UniProt entry; tags and fusion partners are left off.
# UniProt P20226: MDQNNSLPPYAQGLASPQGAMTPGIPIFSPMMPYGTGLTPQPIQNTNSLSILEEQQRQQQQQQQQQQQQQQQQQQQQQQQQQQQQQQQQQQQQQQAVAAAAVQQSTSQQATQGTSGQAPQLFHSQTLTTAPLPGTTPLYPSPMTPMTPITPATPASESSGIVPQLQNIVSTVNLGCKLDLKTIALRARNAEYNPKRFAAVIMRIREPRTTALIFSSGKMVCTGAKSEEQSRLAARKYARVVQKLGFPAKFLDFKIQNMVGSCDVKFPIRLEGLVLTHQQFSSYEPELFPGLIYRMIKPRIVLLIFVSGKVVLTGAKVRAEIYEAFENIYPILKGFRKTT
# UniProt P17480: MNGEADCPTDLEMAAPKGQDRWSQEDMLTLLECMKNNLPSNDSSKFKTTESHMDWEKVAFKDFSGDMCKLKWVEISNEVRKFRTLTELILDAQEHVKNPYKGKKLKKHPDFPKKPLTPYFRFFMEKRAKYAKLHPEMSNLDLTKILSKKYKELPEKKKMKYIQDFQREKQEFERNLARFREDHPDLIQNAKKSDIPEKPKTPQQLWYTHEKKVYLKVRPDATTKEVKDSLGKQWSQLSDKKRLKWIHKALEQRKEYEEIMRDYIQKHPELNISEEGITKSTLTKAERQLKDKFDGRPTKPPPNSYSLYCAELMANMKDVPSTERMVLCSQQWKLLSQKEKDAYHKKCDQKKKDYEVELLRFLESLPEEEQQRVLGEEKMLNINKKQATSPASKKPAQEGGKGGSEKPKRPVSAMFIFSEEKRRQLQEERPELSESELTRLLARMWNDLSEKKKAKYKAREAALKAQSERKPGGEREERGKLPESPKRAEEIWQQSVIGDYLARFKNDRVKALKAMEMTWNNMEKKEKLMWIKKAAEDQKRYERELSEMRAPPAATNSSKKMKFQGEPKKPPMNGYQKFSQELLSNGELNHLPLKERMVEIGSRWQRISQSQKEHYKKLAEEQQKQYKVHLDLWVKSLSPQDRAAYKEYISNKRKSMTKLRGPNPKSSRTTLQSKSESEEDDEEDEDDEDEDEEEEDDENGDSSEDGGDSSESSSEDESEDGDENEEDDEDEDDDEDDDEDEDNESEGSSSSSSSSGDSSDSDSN
# UniProt Q3B726: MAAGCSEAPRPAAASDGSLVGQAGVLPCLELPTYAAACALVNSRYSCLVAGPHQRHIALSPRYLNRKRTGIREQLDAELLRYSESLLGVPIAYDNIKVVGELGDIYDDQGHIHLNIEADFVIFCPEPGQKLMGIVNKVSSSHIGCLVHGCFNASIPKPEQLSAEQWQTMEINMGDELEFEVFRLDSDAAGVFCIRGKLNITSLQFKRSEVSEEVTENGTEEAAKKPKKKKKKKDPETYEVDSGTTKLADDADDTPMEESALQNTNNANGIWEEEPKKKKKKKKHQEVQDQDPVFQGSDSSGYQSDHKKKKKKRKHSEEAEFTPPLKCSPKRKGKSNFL
# UniProt Q9NYV6: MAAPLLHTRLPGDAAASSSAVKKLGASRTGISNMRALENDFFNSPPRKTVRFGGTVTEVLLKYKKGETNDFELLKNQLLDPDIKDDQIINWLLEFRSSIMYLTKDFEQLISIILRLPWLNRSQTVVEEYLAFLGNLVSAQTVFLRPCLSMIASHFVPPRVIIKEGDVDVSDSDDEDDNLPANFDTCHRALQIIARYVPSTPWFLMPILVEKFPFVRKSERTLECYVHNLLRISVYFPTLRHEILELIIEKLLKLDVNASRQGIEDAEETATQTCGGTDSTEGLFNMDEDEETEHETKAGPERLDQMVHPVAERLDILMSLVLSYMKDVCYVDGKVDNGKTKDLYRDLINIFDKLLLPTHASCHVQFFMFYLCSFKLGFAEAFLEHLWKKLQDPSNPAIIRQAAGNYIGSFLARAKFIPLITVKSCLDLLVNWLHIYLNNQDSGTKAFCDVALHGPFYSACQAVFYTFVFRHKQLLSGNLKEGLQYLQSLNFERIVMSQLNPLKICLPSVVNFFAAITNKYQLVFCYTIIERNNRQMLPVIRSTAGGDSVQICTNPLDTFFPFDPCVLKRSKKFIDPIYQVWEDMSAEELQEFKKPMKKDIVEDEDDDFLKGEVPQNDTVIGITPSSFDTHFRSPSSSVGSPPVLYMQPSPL
# Read-outs that look alike come from different tables or passages of the source. No constants are given. Whether binding was seen depends on the method and setting. In cells and extracts the contact can be indirect. Some binding calls cover weakened binding; strength is not graded here.
# T1: TFIIB-related factor 1 (human (endogenous in HeLa)) (UniProt Q92994)
# T1 sequence: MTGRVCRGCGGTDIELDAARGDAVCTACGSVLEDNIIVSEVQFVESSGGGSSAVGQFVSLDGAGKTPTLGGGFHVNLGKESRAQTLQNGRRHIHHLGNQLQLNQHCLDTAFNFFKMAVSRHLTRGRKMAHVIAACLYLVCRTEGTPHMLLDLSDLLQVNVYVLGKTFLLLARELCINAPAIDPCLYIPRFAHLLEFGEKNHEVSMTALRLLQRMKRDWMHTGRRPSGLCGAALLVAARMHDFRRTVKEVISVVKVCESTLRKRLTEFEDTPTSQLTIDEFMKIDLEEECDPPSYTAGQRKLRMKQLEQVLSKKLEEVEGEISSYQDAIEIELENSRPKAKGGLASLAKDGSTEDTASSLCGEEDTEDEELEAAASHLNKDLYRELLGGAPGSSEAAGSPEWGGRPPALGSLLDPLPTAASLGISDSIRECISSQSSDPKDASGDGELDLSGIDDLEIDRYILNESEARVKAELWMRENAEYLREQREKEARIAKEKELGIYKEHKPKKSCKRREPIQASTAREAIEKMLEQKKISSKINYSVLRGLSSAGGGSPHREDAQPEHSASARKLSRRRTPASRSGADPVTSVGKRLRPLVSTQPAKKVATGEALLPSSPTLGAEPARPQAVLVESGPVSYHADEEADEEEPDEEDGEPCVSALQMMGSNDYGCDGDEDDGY
# T2: TATA box binding protein associated factor, RNA polymerase I subunit B (human (endogenous in HeLa)) (UniProt Q53T94)
# T2 sequence: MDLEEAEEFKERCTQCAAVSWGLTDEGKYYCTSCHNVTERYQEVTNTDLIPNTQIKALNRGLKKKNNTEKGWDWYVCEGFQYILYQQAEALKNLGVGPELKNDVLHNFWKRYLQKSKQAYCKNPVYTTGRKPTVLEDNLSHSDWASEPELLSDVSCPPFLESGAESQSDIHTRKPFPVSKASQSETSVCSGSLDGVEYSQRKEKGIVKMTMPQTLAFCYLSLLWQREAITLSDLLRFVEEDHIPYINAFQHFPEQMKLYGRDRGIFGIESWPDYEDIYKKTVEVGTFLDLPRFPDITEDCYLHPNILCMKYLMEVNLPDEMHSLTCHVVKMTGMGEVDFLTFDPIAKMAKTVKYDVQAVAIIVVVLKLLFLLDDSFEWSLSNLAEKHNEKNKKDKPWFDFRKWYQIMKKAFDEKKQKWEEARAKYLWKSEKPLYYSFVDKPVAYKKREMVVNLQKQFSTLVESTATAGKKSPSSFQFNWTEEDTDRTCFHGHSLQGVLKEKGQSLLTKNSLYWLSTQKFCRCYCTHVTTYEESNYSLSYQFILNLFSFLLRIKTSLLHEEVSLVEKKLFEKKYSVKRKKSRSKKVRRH
# T3: TATA box binding protein associated factor, RNA polymerase I subunit A (human (endogenous in HeLa)) (UniProt Q15573)
# T3 sequence: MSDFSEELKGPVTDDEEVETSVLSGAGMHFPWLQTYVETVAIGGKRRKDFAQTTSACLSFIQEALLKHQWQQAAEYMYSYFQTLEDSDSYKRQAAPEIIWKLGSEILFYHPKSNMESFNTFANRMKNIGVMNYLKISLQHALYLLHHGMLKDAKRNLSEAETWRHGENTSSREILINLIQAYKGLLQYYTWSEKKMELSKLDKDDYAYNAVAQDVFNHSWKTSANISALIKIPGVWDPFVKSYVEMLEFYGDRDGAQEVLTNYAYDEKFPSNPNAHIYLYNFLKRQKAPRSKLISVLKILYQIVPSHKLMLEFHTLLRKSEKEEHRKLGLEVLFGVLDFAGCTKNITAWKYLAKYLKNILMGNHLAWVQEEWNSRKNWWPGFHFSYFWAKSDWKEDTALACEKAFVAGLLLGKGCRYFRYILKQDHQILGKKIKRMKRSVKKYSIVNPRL
# T4: TFIIIC subunit GTF3C2 (human (endogenous in HeLa)) (UniProt Q8WUA4)
# T4 sequence: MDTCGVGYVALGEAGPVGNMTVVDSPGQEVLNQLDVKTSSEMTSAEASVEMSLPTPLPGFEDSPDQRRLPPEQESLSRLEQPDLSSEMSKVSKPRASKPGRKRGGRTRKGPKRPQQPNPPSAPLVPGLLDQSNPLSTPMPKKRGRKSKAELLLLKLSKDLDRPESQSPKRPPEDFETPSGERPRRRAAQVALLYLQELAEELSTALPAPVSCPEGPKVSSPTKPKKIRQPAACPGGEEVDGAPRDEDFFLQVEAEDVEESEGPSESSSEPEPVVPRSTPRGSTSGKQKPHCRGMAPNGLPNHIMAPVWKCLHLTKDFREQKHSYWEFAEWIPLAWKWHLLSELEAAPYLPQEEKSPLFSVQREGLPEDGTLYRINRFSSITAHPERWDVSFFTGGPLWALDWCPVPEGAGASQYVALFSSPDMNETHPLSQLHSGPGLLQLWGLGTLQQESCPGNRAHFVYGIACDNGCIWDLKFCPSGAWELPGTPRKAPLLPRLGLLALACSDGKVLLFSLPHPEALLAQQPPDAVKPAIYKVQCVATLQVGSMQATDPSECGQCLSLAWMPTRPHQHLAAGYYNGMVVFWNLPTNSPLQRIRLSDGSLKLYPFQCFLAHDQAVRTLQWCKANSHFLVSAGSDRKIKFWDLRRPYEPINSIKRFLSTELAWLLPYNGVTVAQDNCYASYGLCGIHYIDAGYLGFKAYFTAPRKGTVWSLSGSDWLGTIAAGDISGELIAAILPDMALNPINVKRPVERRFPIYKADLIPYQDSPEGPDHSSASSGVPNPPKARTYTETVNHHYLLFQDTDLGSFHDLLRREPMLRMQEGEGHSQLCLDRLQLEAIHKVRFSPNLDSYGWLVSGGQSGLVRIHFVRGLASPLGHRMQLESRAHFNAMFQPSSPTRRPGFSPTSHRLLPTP
# Legend:
# Assay in all cases: co-IP
# [1] = target: T1, TFIIB-related factor 1 (human (endogenous in HeLa))
# [2] = target: TATA-binding protein (human (endogenous in HeLa)) (UniProt P20226)
# [3] = target: upstream binding factor (human (endogenous in HeLa)) (UniProt P17480)
# [4] = target: DNA-directed RNA polymerase I subunit F (human (endogenous in HeLa)) (UniProt Q3B726)
# [5] = target: transcription initiator factor 1A (human (endogenous in HeLa)) (UniProt Q9NYV6)
# [6] = target: T2, TATA box binding protein associated factor, RNA polymerase I subunit B (human (endogenous in HeLa))
# [7] = target: T3, TATA box binding protein associated factor, RNA polymerase I subunit A (human (endogenous in HeLa))
# [8] = target: T4, TFIIIC subunit GTF3C2 (human (endogenous in HeLa))
# [9] = target: T1, TFIIB-related factor 1 (human (endogenous in HeLa)); remark: listed apart in the source
molecule,measurement,setting,value
DNA-directed RNA polymerase I subunit F (from UniProt Q3B726 1-338),binding,[1],binds
transcription initiator factor 1A (from UniProt Q9NYV6 1-651),binding,[1],binds
TATA-binding protein (from UniProt P20226 1-339),binding,[1],binds
"TFIIB-related factor 1 (protein, UniProt Q92994 1-677) MTGRVCRGCGGTDIELDAARGDAVCTACGSVLEDNIIVSEVQFVESSGGGSSAVGQFVSLDGAGKTPTLGGGFHVNLGKESRAQTLQNGRRHIHHLGNQLQLNQHCLDTAFNFFKMAVSRHLTRGRKMAHVIAACLYLVCRTEGTPHMLLDLSDLLQVNVYVLGKTFLLLARELCINAPAIDPCLYIPRFAHLLEFGEKNHEVSMTALRLLQRMKRDWMHTGRRPSGLCGAALLVAARMHDFRRTVKEVISVVKVCESTLRKRLTEFEDTPTSQLTIDEFMKIDLEEECDPPSYTAGQRKLRMKQLEQVLSKKLEEVEGEISSYQDAIEIELENSRPKAKGGLASLAKDGSTEDTASSLCGEEDTEDEELEAAASHLNKDLYRELLGGAPGSSEAAGSPEWGGRPPALGSLLDPLPTAASLGISDSIRECISSQSSDPKDASGDGELDLSGIDDLEIDRYILNESEARVKAELWMRENAEYLREQREKEARIAKEKELGIYKEHKPKKSCKRREPIQASTAREAIEKMLEQKKISSKINYSVLRGLSSAGGGSPHREDAQPEHSASARKLSRRRTPASRSGADPVTSVGKRLRPLVSTQPAKKVATGEALLPSSPTLGAEPARPQAVLVESGPVSYHADEEADEEEPDEEDGEPCVSALQMMGSNDYGCDGDEDDGY",binding,[2],binds
same,binding,[3],binds
same,binding,[4],binds
same,binding,[5],binds
same,binding,[6],binds
same,binding,[7],binds
same,binding,[8],binds
"TATA box binding protein associated factor, RNA polymerase I subunit B (protein, UniProt Q53T94 1-588) MDLEEAEEFKERCTQCAAVSWGLTDEGKYYCTSCHNVTERYQEVTNTDLIPNTQIKALNRGLKKKNNTEKGWDWYVCEGFQYILYQQAEALKNLGVGPELKNDVLHNFWKRYLQKSKQAYCKNPVYTTGRKPTVLEDNLSHSDWASEPELLSDVSCPPFLESGAESQSDIHTRKPFPVSKASQSETSVCSGSLDGVEYSQRKEKGIVKMTMPQTLAFCYLSLLWQREAITLSDLLRFVEEDHIPYINAFQHFPEQMKLYGRDRGIFGIESWPDYEDIYKKTVEVGTFLDLPRFPDITEDCYLHPNILCMKYLMEVNLPDEMHSLTCHVVKMTGMGEVDFLTFDPIAKMAKTVKYDVQAVAIIVVVLKLLFLLDDSFEWSLSNLAEKHNEKNKKDKPWFDFRKWYQIMKKAFDEKKQKWEEARAKYLWKSEKPLYYSFVDKPVAYKKREMVVNLQKQFSTLVESTATAGKKSPSSFQFNWTEEDTDRTCFHGHSLQGVLKEKGQSLLTKNSLYWLSTQKFCRCYCTHVTTYEESNYSLSYQFILNLFSFLLRIKTSLLHEEVSLVEKKLFEKKYSVKRKKSRSKKVRRH",binding,[9],binds
"TATA box binding protein associated factor, RNA polymerase I subunit A (protein, UniProt Q15573 1-450) MSDFSEELKGPVTDDEEVETSVLSGAGMHFPWLQTYVETVAIGGKRRKDFAQTTSACLSFIQEALLKHQWQQAAEYMYSYFQTLEDSDSYKRQAAPEIIWKLGSEILFYHPKSNMESFNTFANRMKNIGVMNYLKISLQHALYLLHHGMLKDAKRNLSEAETWRHGENTSSREILINLIQAYKGLLQYYTWSEKKMELSKLDKDDYAYNAVAQDVFNHSWKTSANISALIKIPGVWDPFVKSYVEMLEFYGDRDGAQEVLTNYAYDEKFPSNPNAHIYLYNFLKRQKAPRSKLISVLKILYQIVPSHKLMLEFHTLLRKSEKEEHRKLGLEVLFGVLDFAGCTKNITAWKYLAKYLKNILMGNHLAWVQEEWNSRKNWWPGFHFSYFWAKSDWKEDTALACEKAFVAGLLLGKGCRYFRYILKQDHQILGKKIKRMKRSVKKYSIVNPRL",binding,[9],binds
